Source: the supplement of paper PMC10849652
The list shows a part of the results.

Amino acid sequences for entries named in this document (tags omitted). A change or cut given only in a name is not applied to a line headed by its entry.
UniProt Q9H0R8, whole entry, looked up: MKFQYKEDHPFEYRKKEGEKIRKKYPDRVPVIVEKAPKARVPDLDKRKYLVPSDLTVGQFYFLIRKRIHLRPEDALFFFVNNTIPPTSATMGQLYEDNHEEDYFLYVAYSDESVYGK
UniProt Q8WXD5: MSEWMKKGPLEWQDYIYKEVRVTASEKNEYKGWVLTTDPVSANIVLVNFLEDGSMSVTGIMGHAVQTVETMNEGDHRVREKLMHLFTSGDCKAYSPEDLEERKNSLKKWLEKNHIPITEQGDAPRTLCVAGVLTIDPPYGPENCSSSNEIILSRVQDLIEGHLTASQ
UniProt Q5TBA9: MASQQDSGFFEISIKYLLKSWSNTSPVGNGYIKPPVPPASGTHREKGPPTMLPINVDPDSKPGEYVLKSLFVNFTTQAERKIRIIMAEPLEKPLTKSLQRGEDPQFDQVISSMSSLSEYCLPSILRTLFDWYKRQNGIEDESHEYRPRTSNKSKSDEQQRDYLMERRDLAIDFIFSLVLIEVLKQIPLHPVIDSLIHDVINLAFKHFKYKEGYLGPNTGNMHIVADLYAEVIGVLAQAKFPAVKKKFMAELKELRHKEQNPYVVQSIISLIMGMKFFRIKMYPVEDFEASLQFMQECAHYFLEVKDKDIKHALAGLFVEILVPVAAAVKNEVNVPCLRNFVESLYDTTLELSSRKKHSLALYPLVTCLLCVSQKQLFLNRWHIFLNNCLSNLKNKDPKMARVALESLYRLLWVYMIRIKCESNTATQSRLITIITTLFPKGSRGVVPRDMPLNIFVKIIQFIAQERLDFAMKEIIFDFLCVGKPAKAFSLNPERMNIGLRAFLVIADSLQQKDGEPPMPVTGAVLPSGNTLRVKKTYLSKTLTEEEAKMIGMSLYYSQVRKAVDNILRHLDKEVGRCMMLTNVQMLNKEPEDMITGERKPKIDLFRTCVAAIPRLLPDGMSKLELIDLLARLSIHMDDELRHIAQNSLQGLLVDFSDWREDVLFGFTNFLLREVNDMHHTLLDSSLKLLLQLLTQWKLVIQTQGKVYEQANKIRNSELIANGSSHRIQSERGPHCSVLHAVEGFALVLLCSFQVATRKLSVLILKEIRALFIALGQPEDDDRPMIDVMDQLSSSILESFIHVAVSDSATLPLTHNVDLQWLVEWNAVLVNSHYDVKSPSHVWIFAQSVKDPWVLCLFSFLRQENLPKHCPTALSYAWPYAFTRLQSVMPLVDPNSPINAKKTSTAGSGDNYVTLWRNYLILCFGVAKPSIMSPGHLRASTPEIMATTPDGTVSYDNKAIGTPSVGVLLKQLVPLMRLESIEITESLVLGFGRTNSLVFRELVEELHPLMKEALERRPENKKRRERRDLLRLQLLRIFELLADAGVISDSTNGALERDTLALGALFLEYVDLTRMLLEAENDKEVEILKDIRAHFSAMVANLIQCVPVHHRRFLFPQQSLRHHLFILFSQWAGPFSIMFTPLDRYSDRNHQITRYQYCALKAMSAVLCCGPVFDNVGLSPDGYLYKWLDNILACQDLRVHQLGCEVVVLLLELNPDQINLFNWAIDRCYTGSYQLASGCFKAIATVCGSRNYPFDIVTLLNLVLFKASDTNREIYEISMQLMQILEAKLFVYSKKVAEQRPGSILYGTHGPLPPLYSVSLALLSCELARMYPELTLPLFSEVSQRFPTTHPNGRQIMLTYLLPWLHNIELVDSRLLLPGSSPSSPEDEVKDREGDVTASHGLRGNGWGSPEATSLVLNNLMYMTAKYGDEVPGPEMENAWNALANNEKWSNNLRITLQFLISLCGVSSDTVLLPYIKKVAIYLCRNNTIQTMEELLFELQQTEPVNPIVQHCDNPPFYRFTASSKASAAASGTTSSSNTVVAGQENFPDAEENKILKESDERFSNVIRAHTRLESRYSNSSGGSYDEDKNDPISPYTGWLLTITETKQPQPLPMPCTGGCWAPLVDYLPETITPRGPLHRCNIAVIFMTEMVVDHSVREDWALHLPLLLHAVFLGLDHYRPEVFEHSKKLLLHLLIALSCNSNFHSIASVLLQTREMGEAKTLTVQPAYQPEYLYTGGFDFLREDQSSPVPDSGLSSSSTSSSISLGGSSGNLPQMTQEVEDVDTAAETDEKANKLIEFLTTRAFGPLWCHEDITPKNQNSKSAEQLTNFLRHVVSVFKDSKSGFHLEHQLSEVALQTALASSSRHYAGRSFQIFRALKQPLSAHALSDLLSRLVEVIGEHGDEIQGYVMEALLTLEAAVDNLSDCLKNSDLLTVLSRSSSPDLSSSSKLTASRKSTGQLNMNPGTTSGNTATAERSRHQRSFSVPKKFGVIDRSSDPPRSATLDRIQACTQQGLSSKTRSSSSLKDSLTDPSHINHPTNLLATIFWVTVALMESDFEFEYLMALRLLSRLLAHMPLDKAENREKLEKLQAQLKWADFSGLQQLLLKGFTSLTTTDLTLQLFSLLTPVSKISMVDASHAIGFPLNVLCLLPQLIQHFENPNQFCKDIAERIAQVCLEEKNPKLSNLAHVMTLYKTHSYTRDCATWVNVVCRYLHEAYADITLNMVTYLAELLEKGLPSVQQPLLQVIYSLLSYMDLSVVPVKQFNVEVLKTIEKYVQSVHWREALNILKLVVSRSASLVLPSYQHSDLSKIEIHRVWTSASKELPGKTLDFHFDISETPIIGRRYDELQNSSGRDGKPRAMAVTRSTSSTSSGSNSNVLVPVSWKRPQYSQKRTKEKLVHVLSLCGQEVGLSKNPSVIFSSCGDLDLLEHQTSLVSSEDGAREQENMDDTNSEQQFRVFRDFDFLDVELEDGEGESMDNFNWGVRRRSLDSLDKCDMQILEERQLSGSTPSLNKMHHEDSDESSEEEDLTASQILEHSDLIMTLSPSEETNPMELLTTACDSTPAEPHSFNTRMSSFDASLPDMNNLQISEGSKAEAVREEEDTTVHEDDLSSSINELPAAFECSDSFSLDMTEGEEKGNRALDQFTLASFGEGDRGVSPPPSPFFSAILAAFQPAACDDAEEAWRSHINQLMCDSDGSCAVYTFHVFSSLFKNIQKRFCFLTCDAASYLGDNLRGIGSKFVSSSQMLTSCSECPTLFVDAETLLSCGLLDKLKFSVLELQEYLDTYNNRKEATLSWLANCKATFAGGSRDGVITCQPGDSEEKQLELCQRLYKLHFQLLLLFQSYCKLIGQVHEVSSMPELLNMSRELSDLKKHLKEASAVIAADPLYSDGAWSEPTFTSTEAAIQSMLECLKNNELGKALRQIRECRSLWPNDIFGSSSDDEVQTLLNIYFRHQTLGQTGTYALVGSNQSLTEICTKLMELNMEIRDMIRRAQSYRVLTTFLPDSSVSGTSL
UniProt Q9UET6: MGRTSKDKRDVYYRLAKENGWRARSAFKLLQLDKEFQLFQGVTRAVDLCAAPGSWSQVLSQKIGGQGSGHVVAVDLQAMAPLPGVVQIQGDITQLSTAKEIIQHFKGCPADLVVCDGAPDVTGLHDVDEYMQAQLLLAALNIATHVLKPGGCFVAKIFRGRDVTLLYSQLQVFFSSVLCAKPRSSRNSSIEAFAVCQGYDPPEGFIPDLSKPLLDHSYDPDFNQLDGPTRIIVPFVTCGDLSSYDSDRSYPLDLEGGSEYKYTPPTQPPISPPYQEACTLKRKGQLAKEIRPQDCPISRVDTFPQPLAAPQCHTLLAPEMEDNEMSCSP
UniProt Q5JV73, whole entry, looked up: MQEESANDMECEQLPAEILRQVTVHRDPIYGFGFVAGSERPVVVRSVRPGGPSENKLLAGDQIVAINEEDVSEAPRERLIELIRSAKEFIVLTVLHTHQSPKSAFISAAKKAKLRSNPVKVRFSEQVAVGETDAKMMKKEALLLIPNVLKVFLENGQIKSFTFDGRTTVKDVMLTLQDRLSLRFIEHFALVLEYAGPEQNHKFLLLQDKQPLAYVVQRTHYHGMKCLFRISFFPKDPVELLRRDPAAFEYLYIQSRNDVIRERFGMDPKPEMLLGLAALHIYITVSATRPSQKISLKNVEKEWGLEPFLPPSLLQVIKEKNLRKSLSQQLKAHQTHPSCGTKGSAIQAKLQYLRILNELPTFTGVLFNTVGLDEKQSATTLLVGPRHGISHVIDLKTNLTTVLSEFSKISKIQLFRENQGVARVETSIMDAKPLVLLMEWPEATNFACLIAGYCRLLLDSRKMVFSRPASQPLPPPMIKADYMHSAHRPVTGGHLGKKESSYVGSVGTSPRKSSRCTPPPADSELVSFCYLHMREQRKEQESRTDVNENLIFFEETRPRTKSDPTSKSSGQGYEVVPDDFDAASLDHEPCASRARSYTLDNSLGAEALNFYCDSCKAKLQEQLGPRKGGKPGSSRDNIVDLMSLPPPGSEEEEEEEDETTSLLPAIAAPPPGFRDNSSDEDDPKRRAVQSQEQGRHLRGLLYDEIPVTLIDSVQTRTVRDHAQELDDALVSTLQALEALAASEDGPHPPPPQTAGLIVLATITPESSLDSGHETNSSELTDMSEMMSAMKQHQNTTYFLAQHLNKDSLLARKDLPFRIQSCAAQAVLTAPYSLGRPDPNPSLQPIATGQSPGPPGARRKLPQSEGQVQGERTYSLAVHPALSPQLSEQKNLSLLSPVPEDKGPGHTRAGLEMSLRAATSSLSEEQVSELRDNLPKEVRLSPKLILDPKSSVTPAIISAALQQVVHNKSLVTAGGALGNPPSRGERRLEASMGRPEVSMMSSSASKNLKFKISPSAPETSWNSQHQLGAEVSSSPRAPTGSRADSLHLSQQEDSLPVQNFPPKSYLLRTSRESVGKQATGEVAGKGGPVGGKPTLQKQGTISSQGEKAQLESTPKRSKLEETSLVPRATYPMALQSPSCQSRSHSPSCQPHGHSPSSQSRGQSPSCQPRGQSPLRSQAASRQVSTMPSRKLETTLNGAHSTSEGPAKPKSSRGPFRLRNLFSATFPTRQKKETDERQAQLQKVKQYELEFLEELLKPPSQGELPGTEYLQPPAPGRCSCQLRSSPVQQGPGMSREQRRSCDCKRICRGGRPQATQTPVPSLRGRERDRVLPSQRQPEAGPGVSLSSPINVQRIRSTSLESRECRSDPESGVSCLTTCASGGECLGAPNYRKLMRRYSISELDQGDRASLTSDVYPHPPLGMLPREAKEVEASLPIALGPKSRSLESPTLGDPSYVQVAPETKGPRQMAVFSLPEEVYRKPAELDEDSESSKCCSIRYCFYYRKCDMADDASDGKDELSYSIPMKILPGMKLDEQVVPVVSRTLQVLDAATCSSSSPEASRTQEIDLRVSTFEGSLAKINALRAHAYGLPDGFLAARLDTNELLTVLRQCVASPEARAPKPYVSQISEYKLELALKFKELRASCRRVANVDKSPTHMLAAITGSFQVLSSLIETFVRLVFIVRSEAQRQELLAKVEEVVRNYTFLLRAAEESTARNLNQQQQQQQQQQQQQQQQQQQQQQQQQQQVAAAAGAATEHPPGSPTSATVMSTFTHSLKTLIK
UniProt Q9NXC2: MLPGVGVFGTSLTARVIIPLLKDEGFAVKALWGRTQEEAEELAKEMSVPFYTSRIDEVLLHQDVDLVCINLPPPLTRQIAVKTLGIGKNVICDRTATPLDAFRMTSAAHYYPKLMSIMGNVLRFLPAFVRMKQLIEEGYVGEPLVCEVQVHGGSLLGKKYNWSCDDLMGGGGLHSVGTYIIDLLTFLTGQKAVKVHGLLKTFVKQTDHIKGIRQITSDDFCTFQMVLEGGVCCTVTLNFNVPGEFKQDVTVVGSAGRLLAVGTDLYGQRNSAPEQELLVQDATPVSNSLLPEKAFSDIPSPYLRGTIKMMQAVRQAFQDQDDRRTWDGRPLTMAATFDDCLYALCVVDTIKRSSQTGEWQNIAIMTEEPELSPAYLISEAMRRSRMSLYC
UniProt Q96CN9: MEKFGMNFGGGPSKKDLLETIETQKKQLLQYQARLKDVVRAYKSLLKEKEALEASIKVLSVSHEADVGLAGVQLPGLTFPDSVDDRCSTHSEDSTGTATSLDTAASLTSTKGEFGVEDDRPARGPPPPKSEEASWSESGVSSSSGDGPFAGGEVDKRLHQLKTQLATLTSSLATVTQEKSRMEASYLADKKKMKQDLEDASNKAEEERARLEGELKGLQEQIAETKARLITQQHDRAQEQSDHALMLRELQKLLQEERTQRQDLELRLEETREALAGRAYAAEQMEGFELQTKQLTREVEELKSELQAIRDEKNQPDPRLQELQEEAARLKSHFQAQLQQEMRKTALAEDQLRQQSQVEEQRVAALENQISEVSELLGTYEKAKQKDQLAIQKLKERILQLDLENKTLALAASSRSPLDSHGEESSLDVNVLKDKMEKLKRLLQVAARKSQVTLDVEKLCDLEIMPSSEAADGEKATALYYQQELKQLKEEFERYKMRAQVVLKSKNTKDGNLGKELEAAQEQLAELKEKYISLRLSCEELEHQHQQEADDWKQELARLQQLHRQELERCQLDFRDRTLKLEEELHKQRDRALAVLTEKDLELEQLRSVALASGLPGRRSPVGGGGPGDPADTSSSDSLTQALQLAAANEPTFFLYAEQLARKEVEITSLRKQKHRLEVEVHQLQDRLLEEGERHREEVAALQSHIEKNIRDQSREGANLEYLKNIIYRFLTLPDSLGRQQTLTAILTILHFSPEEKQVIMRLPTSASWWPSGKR

How the values were obtained:
Assay in all cases: log2 fold change, soluble protein after heating vs DMSO (PISA); higher = thermal stabilisation; K562 cells, 10 uM, 30 min; active = over 0.2 and 3.5 SD of the protein, either way, in both replicates (recomputed)
saracatinib = compound: CN1CCN(CCOc2cc(OC3CCOCC3)c3c(Nc4c(Cl)ccc5c4OCO5)ncnc3c2)CC1 [saracatinib]
Outline: (§1)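 Values are thermal stability changes relative to control samples and are taken from duplicates. They are stated as log2 fold changes. Before quantification by TMTpro 16plex LC-MS/MS with equalised channel sums, K562 cells at 2×10^6 cells/mL were treated with 10 μM compound for 30 min, heated in aliquots for 3 min across 48°C-58°C, pooled, extracted in PBS with 0.5% NP-40 at 4°C, and centrifuged at 21,000xg for 90 min to give the soluble supernatant.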

sotrastaurin = compound: CN1CCN(c2nc(C3=C(c4c[nH]c5ccccc45)C(=O)NC3=O)c3ccccc3n2)CC1 [sotrastaurin]
Outline: as §1

Tubastatin A = compound: CN1CCc2c(c3ccccc3n2Cc2ccc(C(=O)NO)cc2)C1 [Tubastatin A]
Outline: as §1

[1] = compound: CNC(=O)C1=CC=CC=C1NC2=NC(=NC=C2Cl)NC3=C(C=C(C=C3)N4CCOCC4)OC
Outline: as §1

[2] = compound: CNc1nc(-c2ccc3c(N)n[nH]c3c2)cc(N2C[C@@H](C(=O)NC3CCCCC3)CC[C@H]2C)n1
Outline: as §1

alvocidib = compound: CN1CC[C@H](c2c(O)cc(O)c3c(=O)cc(-c4ccccc4Cl)oc23)[C@H](O)C1 [alvocidib]
Outline: as §1

defactinib = compound: CNC(=O)c1ccc(Nc2ncc(C(F)(F)F)c(NCc3nccnc3N(C)S(C)(=O)=O)n2)cc1 [defactinib]
Outline: as §1

rucaparib = compound: CNCc1ccc(-c2[nH]c3cc(F)cc4c3c2CCNC4=O)cc1 [rucaparib]
Outline: as §1

encorafenib = compound: COC(=O)N[C@@H](C)CNc1nccc(-c2cn(C(C)C)nc2-c2cc(Cl)cc(NS(C)(=O)=O)c2F)n1 [encorafenib]
Outline: as §1

[3] = compound: COC(=O)[C@H](CCSC)NC(=O)C1=C(C=C(C=C1)NC[C@H](CS)N)C2=CC=CC=C2
Outline: as §1

Measured: log2 fold change

GGT1 (UniProt P19440)
inactive: saracatinib 0.008 | sotrastaurin 0.025 | Tubastatin A -0.165 | [1] -0.105 | [2] 0.137

GATC (UniProt O43716)
inactive: saracatinib 0.05 | alvocidib -0.003 | Tubastatin A -0.044 | defactinib -0.225 | rucaparib -0.279 | [2] 0.004 | encorafenib 0.003 | [3] -0.071

GAGE12F (UniProt P0CL80)
inactive: saracatinib 0.007 | sotrastaurin 0.053 | Tubastatin A 0.009 | [1] -0.081 | defactinib 0.095 | rucaparib 0.033 | [2] -0.051 | encorafenib -0.031 | [3] -0.02

FUT1 (UniProt P19526)
inactive: sotrastaurin 0.282

GDAP2 (UniProt Q9NXN4)
inactive: saracatinib -0.117 | sotrastaurin 0.121 | [1] 0.104 | rucaparib 0.061 | [2] -0.111 | encorafenib 0.253

GABARAPL1 isoform 2 (UniProt Q9H0R8)
inactive: saracatinib -0.057 | sotrastaurin 0 | Tubastatin A 0.08 | [1] 0.023 | defactinib -0.011 | rucaparib -0.079 | [2] -0.006 | encorafenib -0.004 | [3] -0.058

GATD1 (UniProt Q8NB37)
inactive: saracatinib 0.077 | sotrastaurin 0.057 | Tubastatin A 0.06 | [1] -0.079 | defactinib 0.001 | rucaparib -0.004 | [2] -0.022 | encorafenib 0 | [3] 0.011

FUCA2 (UniProt Q9BTY2)
inactive: saracatinib -0.013 | sotrastaurin -0.021 | Tubastatin A -0.026 | [1] 0.028 | defactinib -0.045 | rucaparib -0.139 | [2] 0.003 | encorafenib 0.012 | [3] 0.038

GEMIN6 (UniProt Q8WXD5)
inactive: saracatinib 0.063 | sotrastaurin 0.002 | Tubastatin A 0.072 | [1] 0.013 | defactinib -0.061 | rucaparib 0.069 | [2] -0.028 | encorafenib -0.04 | [3] -0.112

GEMIN7 (UniProt Q9H840)
inactive: [1] 0.14

GGACT (UniProt Q9BVM4)
inactive: rucaparib 0.084 | encorafenib -0.318

FYTTD1 (UniProt Q96QD9)
inactive: alvocidib 0.256 | Tubastatin A 0.008 | rucaparib -0.044 | encorafenib 0.197

FRYL isoform 2 (UniProt O94915)
inactive: alvocidib 0.121 | defactinib 0.064 | [3] -0.146

Taken from the results shown (9 entries):
FUT1 (UniProt P19526)
inactive: sotrastaurin 0.282

GDAP2 (UniProt Q9NXN4)
inactive: saracatinib -0.117 | sotrastaurin 0.121 | [1] 0.104 | rucaparib 0.061 | [2] -0.111 | encorafenib 0.253

GABARAPL1 isoform 2 (UniProt Q9H0R8)
inactive: saracatinib -0.057 | sotrastaurin 0 | Tubastatin A 0.08 | [1] 0.023 | defactinib -0.011 | rucaparib -0.079 | [2] -0.006 | encorafenib -0.004 | [3] -0.058

GATD1 (UniProt Q8NB37)
inactive: saracatinib 0.077 | sotrastaurin 0.057 | Tubastatin A 0.06 | [1] -0.079 | defactinib 0.001 | rucaparib -0.004 | [2] -0.022 | encorafenib 0 | [3] 0.011

FUCA2 (UniProt Q9BTY2)
inactive: saracatinib -0.013 | sotrastaurin -0.021 | Tubastatin A -0.026 | [1] 0.028 | defactinib -0.045 | rucaparib -0.139 | [2] 0.003 | encorafenib 0.012 | [3] 0.038

GEMIN6 (UniProt Q8WXD5)
inactive: saracatinib 0.063 | sotrastaurin 0.002 | Tubastatin A 0.072 | [1] 0.013 | defactinib -0.061 | rucaparib 0.069 | [2] -0.028 | encorafenib -0.04 | [3] -0.112

GEMIN7 (UniProt Q9H840)
inactive: [1] 0.14

GGACT (UniProt Q9BVM4)
inactive: rucaparib 0.084 | encorafenib -0.318

FYTTD1 (UniProt Q96QD9)
inactive: alvocidib 0.256 | Tubastatin A 0.008 | rucaparib -0.044 | encorafenib 0.197

The list goes on:

FZD1 (UniProt Q9UP38)
inactive: sotrastaurin 0.108 | alvocidib -0.186 | [1] -0.264 | defactinib -0.223 | [3] 0.088

GALNT7 (UniProt H0YAH3)
inactive: alvocidib 0.011 | defactinib -0.166 | rucaparib -0.325 | encorafenib 0.049 | [3] 0.158

GDPD3 (UniProt Q7L5L3)
inactive: [1] 0.251 | defactinib -0.074 | [3] -0.132

GFM2 (UniProt Q969S9)
inactive: rucaparib 0.468 | encorafenib 0.217

GAA (UniProt P10253)
inactive: sotrastaurin -0.021 | Tubastatin A 0.141 | [1] -0.329 | defactinib -0.158 | rucaparib 0.018 | encorafenib 0.005 | [3] -0.07

GDPD5 (UniProt Q8WTR4)
inactive: rucaparib 0.009 | encorafenib 0.114

FRY (UniProt Q5TBA9)
inactive: sotrastaurin -0.061 | Tubastatin A 0.176 | [1] -0.249 | defactinib -0.043 | rucaparib 0.049 | encorafenib 0.286 | [3] -0.038

GABPB1 (UniProt Q06547)
inactive: sotrastaurin -0.175 | Tubastatin A 0.419 | [1] -0.116 | defactinib -0.177 | [3] 0.105

GFAP isoform 2 (UniProt P14136)
inactive: rucaparib 0.068 | encorafenib -0.064

GDI2 (UniProt Q5SX86)
inactive: [1] 0.199

FTSJ1 isoform 2 (UniProt Q9UET6)
inactive: sotrastaurin -0.12 | [1] -0.046

GAS6 isoform 1 (UniProt Q14393)
inactive: sotrastaurin -0.104 | [1] 0.067 | rucaparib -0.073 | encorafenib -0.026

FZD5 (UniProt Q13467)
inactive: sotrastaurin 0.173 | Tubastatin A -0.026 | [1] -0.127

GANAB (UniProt Q14697)
inactive: Tubastatin A -0.109 | rucaparib -0.334 | encorafenib 0.151

FRMD8 (UniProt Q9BZ67)
inactive: alvocidib 0.114 | Tubastatin A -0.028 | rucaparib 0.079 | encorafenib 0.174

FRMPD3 (UniProt Q5JV73)
inactive: alvocidib 0.152 | Tubastatin A -0.15 | [1] 0.052 | defactinib 0.003 | rucaparib 0.036 | encorafenib 0.058 | [3] 0.09

GAL (UniProt P22466)
inactive: [1] 0.118 | defactinib -0.201 | [3] 0.04

GAGE1 (UniProt Q13065)
inactive: rucaparib 0.095 | encorafenib -0.316

GATAD2B (UniProt Q8WXI9)
inactive: sotrastaurin -0.099 | Tubastatin A 0.001 | [1] -0.015 | defactinib -0.07 | rucaparib 0.125 | encorafenib -0.217 | [3] 0.012

GAPDH isoform 2 (UniProt P04406)
inactive: [1] 0.035

GARS1 (UniProt H7C443)
inactive: sotrastaurin 0.137 | alvocidib 0.082 | Tubastatin A 0.059 | [1] -0.07 | defactinib 0.03 | rucaparib 0.004 | encorafenib -0.139 | [3] 0.076

GFOD1 (UniProt Q9NXC2)
inactive: [1] 0.065

G6PC3 (UniProt Q9BUM1)
inactive: [1] -0.003 | defactinib -0.177 | rucaparib -0.069 | encorafenib 0.101 | [3] -0.021

GALNT3 (UniProt Q14435)
inactive: Tubastatin A 0.092 | [1] -0.053

FUT4 (UniProt P22083)
inactive: Tubastatin A 0.227

GCC1 (UniProt Q96CN9)
inactive: [1] 0.017

GEMIN8 (UniProt Q9NWZ8)
inactive: alvocidib 0 | Tubastatin A -0.125 | [1] -0.041 | defactinib 0.001 | rucaparib 0.204 | encorafenib -0.171 | [3] 0.079

FUOM (UniProt A2VDF0)
inactive: sotrastaurin 0.135 | alvocidib -0.092 | Tubastatin A 0.011 | defactinib 0.065 | rucaparib -0.01 | encorafenib -0.156 | [3] 0.066

FOXJ2 (UniProt Q9P0K8)
inactive: alvocidib -0.047 | defactinib -0.333 | [3] -0.075
